# This is one part of the list.
# B1: SynCAM (Mus musculus) (protein)
# chain: MASAVLPSGSQCAAAAAVAAAAAPPGLRLRLLLLLLSAAALIPTGDGQNLFTKDVTVIEGEVATISCQVNKSDDSVIQLLNPNRQTIYFRDFRPLKDSRFQLLNFSSSELKVSLTNVSISDEGRYFCQLYTDPPQESYTTITVLVPPRNLMIDIQKDTAVEGEEIEVNCTAMASKPATTIRWFKGNKELKGKSEVEEWSDMYTVTSQLMLKVHKEDDGVPVICQVEHPAVTGNLQTQRYLEVQYKPQVHIQMTYPLQGLTREGDAFELTCEAIGKPQPVMVTWVRVDDEMPQHAVLSGPNLFINNLNKTDNGTYRCEASNIVGKAHSDYMLYVYDPPTTIPPP
# Columns and labels:
# Test in all cases: glycan array binding signal (z-score within array); higher = stronger binding
# Conditions in all cases: glycan notation: IUPAC condensed, linker removed
# [1] = target: Kdn(a2-3)Gal(b1-4)Glc
# Outline: (§1)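 From the Consortium for Functional Glycomics database, 3228 arrays were curated, keeping only those whose protein sequence was available. Binding is given as a within-array Z-score averaged across arrays sharing a protein sequence and across linkers. Negative Z-scores can be read as non-binding.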
# [2] = target: Kdn(a2-3)Gal(b1-4)GlcNAc
# Outline: as §1
# [3] = target: Kdn(a2-3)Gal(b1-4)[Fuc(a1-3)]GlcNAc
# Outline: as §1
# [4] = target: Kdn(a2-6)Gal(b1-4)GlcNAc
# Outline: as §1
# [5] = target: Man(a1-2)Man(a1-2)Man(a1-3)Man
# Outline: as §1
# [6] = target: Man(a1-2)Man(a1-2)Man(a1-6)[Man(a1-3)]Man
# Outline: as §1
# [7] = target: Man(a1-2)Man(a1-3)Man
# Outline: as §1
# [8] = target: Man(a1-2)Man(a1-3)[Man(a1-2)Man(a1-6)]Man
# Outline: as §1
# [9] = target: Man(a1-2)Man(a1-3)[Man(a1-2)Man(a1-6)]Man(a1-6)[Man(a1-2)Man(a1-2)Man(a1-3)]Man
# Outline: as §1
# [10] = target: Man(a1-2)Man(a1-3)[Man(a1-2)Man(a1-6)]Man(a1-6)[Man(a1-2)Man(a1-2)Man(a1-3)]Man(b1-4)GlcNAc(b1-4)GlcNAc
# Outline: as §1
# [11] = target: Man(a1-2)Man(a1-3)[Man(a1-6)]Man(a1-6)[Man(a1-2)Man(a1-3)]Man(b1-4)GlcNAc(b1-4)GlcNAc
# Outline: as §1
# [12] = target: Man(a1-2)Man(a1-6)[Man(a1-3)]Man(a1-6)[Man(a1-2)Man(a1-2)Man(a1-3)]Man
# Outline: as §1
# [13] = target: Man(a1-2)Man(a1-6)[Man(a1-3)]Man(a1-6)[Man(a1-2)Man(a1-2)Man(a1-3)]Man(b1-4)GlcNAc(b1-4)GlcNAc
# Outline: as §1
# [14] = target: Man(a1-3)[Man(a1-6)]Man
# Outline: as §1
# [15] = target: Man(a1-3)[Man(a1-6)]Man(a1-6)[Man(a1-2)Man(a1-3)]Man(b1-4)GlcNAc(b1-4)GlcNAc
# Outline: as §1
# [16] = target: Man(a1-3)[Man(a1-6)]Man(a1-6)[Man(a1-3)]Man
# Outline: as §1
# [17] = target: Man(a1-3)[Man(a1-6)]Man(a1-6)[Man(a1-3)]Man(b1-4)GlcNAc(b1-4)GlcNAc
# Outline: as §1
# [18] = target: Man(a1-3)[Man(a1-6)]Man(b1-4)GlcNAc(b1-4)GlcNAc
# Outline: as §1
# [19] = target: Man(a1-3)[Man(a1-6)]Man(b1-4)GlcNAc(b1-4)[Fuc(a1-6)]GlcNAc
# Outline: as §1
# [20] = target: Man(a1-6)Man
# Outline: as §1
# [21] = target: Man(b1-4)GlcNAc
# Outline: as §1
# [22] = target: MurNAc(b1-4)GlcNAc
# Outline: as §1
# [23] = target: Neu5Ac(a2-3)Gal
# Outline: as §1
# [24] = target: Neu5Ac(a2-3)Gal(b1-3)GalNAc
# Outline: as §1
# [25] = target: Neu5Ac(a2-3)Gal(b1-3)GalNAc(b1-3)Gal(a1-4)Gal(b1-4)Glc
# Outline: as §1
# [26] = target: Neu5Ac(a2-3)Gal(b1-3)GalNAc(b1-4)[Neu5Ac(a2-3)]Gal(b1-4)Glc
# Outline: as §1
# [27] = target: Neu5Ac(a2-3)Gal(b1-3)GalNAc(b1-4)[Neu5Ac(a2-8)Neu5Ac(a2-3)]Gal(b1-4)Glc
# Outline: as §1
# [28] = target: Neu5Ac(a2-3)Gal(b1-3)GalNAc6S
# Outline: as §1
# [29] = target: Neu5Ac(a2-3)Gal(b1-3)GlcNAc
# Outline: as §1
# [30] = target: Neu5Ac(a2-3)Gal(b1-3)GlcNAc(b1-2)Man
# Outline: as §1
# [31] = target: Neu5Ac(a2-3)Gal(b1-3)GlcNAc(b1-2)Man(a1-3)[GlcNAc(b1-4)][Neu5Ac(a2-3)Gal(b1-3)GlcNAc(b1-2)Man(a1-6)]Man(b1-4)GlcNAc(b1-4)GlcNAc
# Outline: as §1
# [32] = target: Neu5Ac(a2-3)Gal(b1-3)GlcNAc(b1-2)Man(a1-3)[Neu5Ac(a2-3)Gal(b1-3)GlcNAc(b1-2)Man(a1-6)]Man(b1-4)GlcNAc(b1-4)GlcNAc
# Outline: as §1
# [33] = target: Neu5Ac(a2-3)Gal(b1-3)GlcNAc(b1-3)Gal(b1-3)GlcNAc
# Outline: as §1
# [34] = target: Neu5Ac(a2-3)Gal(b1-3)GlcNAc(b1-3)Gal(b1-4)GlcNAc
# Outline: as §1
# [35] = target: Neu5Ac(a2-3)Gal(b1-3)GlcNAc(b1-3)GalNAc
# Outline: as §1
# [36] = target: Neu5Ac(a2-3)Gal(b1-3)GlcNAc(b1-4)Gal(b1-4)Glc
# Outline: as §1
# [37] = target: Neu5Ac(a2-3)Gal(b1-3)GlcNAc(b1-6)GalNAc
# Outline: as §1
# [38] = target: Neu5Ac(a2-3)Gal(b1-3)GlcNAc6S
# Outline: as §1
binder,measurement,setting,value
B1,glycan array binding signal (z-score),[1],-0.173
same,glycan array binding signal (z-score),[2],-0.047
same,glycan array binding signal (z-score),[3],-1.11
same,glycan array binding signal (z-score),[4],-0.324
same,glycan array binding signal (z-score),[5],-0.249
same,glycan array binding signal (z-score),[6],0.166
same,glycan array binding signal (z-score),[7],-0.614
same,glycan array binding signal (z-score),[8],-0.536
same,glycan array binding signal (z-score),[9],-0.953
same,glycan array binding signal (z-score),[10],-0.34
same,glycan array binding signal (z-score),[11],-0.236
same,glycan array binding signal (z-score),[12],-1.01
same,glycan array binding signal (z-score),[13],-0.553
same,glycan array binding signal (z-score),[14],-0.227
same,glycan array binding signal (z-score),[15],0.936
same,glycan array binding signal (z-score),[16],-1.09
same,glycan array binding signal (z-score),[17],-0.113
same,glycan array binding signal (z-score),[18],-0.604
same,glycan array binding signal (z-score),[19],-0.58
same,glycan array binding signal (z-score),[20],0.627
same,glycan array binding signal (z-score),[21],-0.306
same,glycan array binding signal (z-score),[22],-1.26
same,glycan array binding signal (z-score),[23],-0.411
same,glycan array binding signal (z-score),[24],-0.598
same,glycan array binding signal (z-score),[25],0.389
same,glycan array binding signal (z-score),[26],-0.472
same,glycan array binding signal (z-score),[27],0.566
same,glycan array binding signal (z-score),[28],-1.37
same,glycan array binding signal (z-score),[29],-0.059
same,glycan array binding signal (z-score),[30],-0.517
same,glycan array binding signal (z-score),[31],-0.332
same,glycan array binding signal (z-score),[32],0.278
same,glycan array binding signal (z-score),[33],-0.537
same,glycan array binding signal (z-score),[34],-1.56
same,glycan array binding signal (z-score),[35],-0.36
same,glycan array binding signal (z-score),[36],-0.756
same,glycan array binding signal (z-score),[37],-0.216
same,glycan array binding signal (z-score),[38],-0.498

# An excerpt of these results, with bars between the fields.
binder | measurement | setting | value
B1 | glycan array binding signal (z-score) | [17] | -0.113
same | glycan array binding signal (z-score) | [18] | -0.604

# — the supplement of paper PMC8728848
